The test is described as follows: qHTS Assay for Lipid Storage Modulators in Drosophila S3 Cells.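 On cell number change: cells counted by Cell Tracker Red CMTPX staining in the red channel.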 The note with it: BODIPY lipid droplet fluorescence, 18-24 h; for cell number change: measured here: cell count max response, cells fed with added oleic acid. In outline:
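Drosophila S3 cells got compounds at several concentrations plus oleic acid (400 uM solution). Laser-scanning cytometry with 488 nm excitation read lipid droplets at 500-530 nm and cells at 575-640 nm. Percent activity was relative to 20 uM Triacsin C.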
Background: Quantitative high-throughput screening tests each substance at several concentrations.

Setting [1] is: measured here: lipid fluorescence (Fed channel) AC50, cells fed with added oleic acid.
The mark [2] stands for this setting: measured here: cell number channel AC50, cells fed with added oleic acid.

This is one part of the list. The main result of the screen is listed elsewhere. These columns were measured beside it and carry no call. The list favours compounds with an active or inconclusive main result. Potencies come from curve fits of mixed quality, noted in brackets.

Consider `CC(NC(=O)c1ccco1)C(=O)OCC(=O)c1ccc(Cl)s1` (stereo unspecified), for which the cell number change is -21.1%. In addition, under setting [1], the AC50 (commonly the concentration giving half of the maximal activity seen) is 32.6 µM [falling, single point]. Regarding `CC(C)[C@H](NC(=O)c1ccccc1)C(=O)OCC(=O)N1CCN(C(=O)c2ccco2)CC1`, the cell number change is -19.4%. Take `COc1ccccc1CCC(=O)Oc1ccc(C#N)cc1OC`: the cell number change came to 11.9%. For the same molecule, the half-maximal activity concentration (AC50) under setting [1] is 6.51 µM [falling, single point]. Take `Cc1cccc(NC(=O)CN(C2=NC3CS(=O)(=O)CC3S2)c2ccccc2F)c1` (stereo unspecified): the cell number change is 20.2%. For the same molecule, under setting [2], the AC50 is 2.59 µM [rising, single point]. Also, under setting [1], the half-maximal activity concentration (AC50) is 0.651 µM [rising, full curve, poor fit]. Take `CCn1cc([N+](=O)[O-])c(C(=O)N2CCCc3ccccc32)n1`: the cell number change was -6.35%. Further, under setting [1], the half-maximal activity concentration (AC50) is 6.51 µM [rising, single point]. Regarding `O=C(COC(=O)C1CC(=O)N(Cc2ccccc2)C1)c1ccc(Br)cc1` (stereo unspecified), the cell number change turned out to be 78.3%. For the same molecule, under setting [2], the AC50 is 29.1 µM [rising, single point]. With `COC(=O)c1cc(-c2ccc(Br)cc2)c2c(=O)[nH]c(=O)n(C)c2n1`, the cell number change worked out at 19.7%. Consider `COc1cc(C(=O)Nc2ccc(NC(=O)C3CCCCC3)nc2)cc(OC)c1OC`, for which the cell number change was 32.3%. As to `O=C(Cc1ccccc1)NCCSCc1ccco1`, the cell number change was 51.6%. Also, the AC50 under setting [2] was 10.3 µM [rising, partial curve].

For `COc1ccc(C)cc1NC(=S)N1CCN(S(C)(=O)=O)CC1`, the cell number change was -7.54%. Besides, the AC50 under setting [2] is 0.731 µM [rising, single point].

On to `CC(C)(C)c1ccc(Cn2cnc(-c3ccc([N+](=O)[O-])cc3)c2)cc1`, for which the cell number change is -22.6%. Besides, under setting [1], the AC50 is 18.4 µM [falling, partial curve, poor fit]. As for `COc1nccnc1NS(=O)(=O)c1ccc(NC(=S)NC(=O)c2ccc(F)c(F)c2)cc1`, the cell number change stood at 14.4%. The concentration at half-maximal activity (AC50) under setting [1] is 0.146 µM [rising, full curve, poor fit]. Regarding `O=C(O)CSc1c2c(nc3cc(C(=O)Nc4cccc(C(F)(F)F)c4)ccc13)CCCC2`, the AC50 under setting [2] is 1.64 µM [falling, partial curve].

In the case of `CCC(C)N1CCN(S(=O)(=O)Cc2ccccc2)CC1` (stereo unspecified), the cell number change was -7.39%.

As for `CC(=O)c1c(C)[nH]c(C(=O)N2CCc3ccccc3C2)c1C`, the cell number change worked out at 14.5%. Besides, the half-maximal activity concentration (AC50) under setting [1] is 0.00461 µM [rising, full curve, poor fit].

Consider `CCC(=O)Nc1ccc2oc(-c3ccccc3Br)nc2c1`, for which the cell number change was -11.2%. The concentration at half-maximal activity (AC50) under setting [1] is 0.291 µM [rising, full curve, poor fit]. For `Cn1c(CSCc2ccc(Cl)c(Cl)c2)n[nH]c1=S`, the cell number change amounted to 15%. Further, the AC50 under setting [1] is 3.66 µM [rising, partial curve, poor fit].

On to `C/C(=N/NS(=O)(=O)c1ccc(Cl)cc1)c1cccc(NC(=O)c2ccncc2)c1`, for which the cell number change is -38.6%. Besides, the AC50 under setting [2] is 35.5 µM [falling, single point].

Take `O=C(NCC1CCCO1)Nc1ccc(Cl)cc1` (stereo unspecified): the cell number change was -11.3%. Further, the AC50 under setting [1] is 4.11 µM [falling, single point].

Regarding `CCC(CC)C(=O)Nc1cccc(C(=O)Nc2nnc(C)s2)c1`, the cell number change turned out to be 93%. Under setting [2], the AC50 was 20.6 µM [rising, single point]. On to `Cn1c(N2CCCC2)nc2c1c(=O)n(Cc1ccc(F)cc1)c(=O)n2C`, for which the cell number change came to 1.07%. Take `CCCn1nnnc1NCc1ccccc1F`: the AC50 under setting [1] is 0.092 µM [falling, full curve, poor fit].

On to `O=C(CN1CC[C@@]2(O)CCCC[C@H]2[C@@H]1c1ccc(F)cc1)NCc1ccco1`, for which the cell number change was -5.61%. For the molecule `O=C(CCCc1c[nH]c2ccccc12)NCc1cccs1`, the cell number change is -14.7%. Further, under setting [2], the concentration at half-maximal activity (AC50) was 0.164 µM [falling, partial curve, poor fit]. For the same molecule, under setting [1], the half-maximal activity concentration (AC50) was 2.31 µM [falling, full curve, poor fit]. On to `CSc1ncccc1C(=O)OCC(=O)NC1CCCC1`, for which the cell number change was -4.04%. As for `CCSc1ccc(-c2ccc(C)cc2)nn1`, the cell number change was -18.2%. With `CCCCOc1ccc(OCCCN2CCOCC2)cc1`, the cell number change came to 57.7%. In addition, the AC50 under setting [2] was 18.4 µM [rising, single point]. `O=C1Nc2cc(C(=O)N3CCN(c4ccccn4)CC3)ccc2S/C1=C\c1ccccc1`: the cell number change was -43.6%. Under setting [2], the AC50 was 4.11 µM [falling, partial curve]. `CN(CC(=O)NCCc1ccc(S(N)(=O)=O)cc1)CC(=O)Nc1ccccc1Cl`: the cell number change is -5.57%. For the molecule `O=C(Nc1nc2ccc(S(=O)(=O)N3CCCC3)cc2s1)c1cccs1`, the cell number change was -41.5%. Moreover, the AC50 under setting [2] was 14.6 µM [falling, single point]. Moreover, the AC50 under setting [1] is 32.6 µM [falling, single point]. Consider `Cc1ccc(-c2nnc(CSc3nc4cc5c(cc4cc3C)OCO5)o2)cc1`, for which the cell number change was determined as 3.5%. For the same molecule, under setting [1], the concentration at half-maximal activity (AC50) was 23.1 µM [rising, single point]. As for `O=C(OCC(=O)N1CCN(C(=O)c2ccco2)CC1)C1=COCCO1`, the cell number change was -12.6%. In addition, the AC50 under setting [2] is 0.0731 µM [rising, full curve, poor fit]. Besides, the half-maximal activity concentration (AC50) under setting [1] was 6.51 µM [rising, single point]. In the case of `O=C(NCc1cccc(C(F)(F)F)c1)c1cc(Cl)ccc1Cl`, the cell number change amounted to 30.9%. For the same molecule, the AC50 under setting [2] was 11.6 µM [rising, single point]. For the same molecule, the AC50 under setting [1] is 13 µM [rising, partial curve, poor fit]. As to `CC12CN3CC(C)(CN(C1)C3c1cc3ccccc3[nH]1)C2=O` (stereo unspecified), the cell number change was -13.6%. Under setting [1], the AC50 was 7.31 µM [falling, partial curve, poor fit]. Turning to `COc1cc(NC(=O)c2ccco2)c(C(=O)OCC(=O)c2c[nH]c3ccccc23)cc1OC`, the cell number change was -56.5%. Under setting [2], the AC50 was 29.1 µM [falling, single point]. The half-maximal activity concentration (AC50) under setting [1] is 0.164 µM [rising, full curve, poor fit].

Take `O=C1OC2(CCCCC2)OC(=O)C1=CNc1nc2ccccc2s1`: the cell number change was 12.5%. Still for that read-out and setting: next, `CCOc1cccc(-c2nnc3sc(-c4cc(OC)c(OC)cc4OC)nn23)c1`: 1.82%. As to `Cc1ccc(Cl)cc1NC(=O)C(NS(=O)(=O)c1cccs1)c1ccccc1` (stereo unspecified), the cell number change is 32.8%. In addition, the concentration at half-maximal activity (AC50) under setting [2] is 3.26 µM [rising, partial curve]. The AC50 under setting [1] was 25.9 µM [rising, partial curve, poor fit]. For `CC1(C)CC(NS(=O)(=O)c2ccc(C(C)(C)C)cc2)CC(C)(C)N1`, the concentration at half-maximal activity (AC50) under setting [1] is 29.1 µM [rising, single point]. On to `CCC(=O)c1cc2c(C)cc(=O)oc2c(C)c1OC(C)=O`, for which the cell number change is 1.72%. The AC50 under setting [1] is 2.06 µM [rising, partial curve]. As for `Cc1cccc2c(SCC(=O)NCC3CCCO3)nc(-c3ccc(F)cc3)nc12` (stereo unspecified), the cell number change was -10%. Take `Cc1cc(S(=O)(=O)NC2CCCC2)ccc1-n1cnnn1`: the cell number change worked out at 11.3%. The AC50 under setting [1] was 29.1 µM [rising, single point].

Consider `CCN(C(=O)Cn1c(=O)n2nc(CCn3nc(C)cc3C)nc2c2ccccc21)c1cccc(C)c1`, for which the cell number change turned out to be 1.47%. As for `CC(C)(C)Nc1nc(NC(C)(C)C)nc(-n2ccnc2)n1`, the cell number change was 143%. Besides, the AC50 under setting [2] was 8.2 µM [rising, partial curve]. In addition, the AC50 under setting [1] is 4.11 µM [rising, partial curve]. On to `N#CC1=C(N)Oc2c(ccc3ccccc23)C1c1cccs1` (stereo unspecified), for which the concentration at half-maximal activity (AC50) under setting [1] is 1.46 µM [rising, partial curve].

Consider `CCOC(=O)c1cc(CC)sc1NC(=O)Cc1ccccc1`, for which the cell number change stood at 40.4%. Besides, under setting [2], the AC50 is 18.4 µM [rising, single point]. Moreover, the AC50 under setting [1] is 20.6 µM [rising, single point].

Take `COc1ccc(NC(=O)CN(C)CC(=O)N2CCCCCC2)cc1`: the AC50 under setting [2] was 3.26 µM [rising, partial curve]. Turning to `CN1CCN(c2ncc(CN3C(=O)c4ccccc4C3=O)s2)CC1`, the cell number change amounted to 32.6%. The concentration at half-maximal activity (AC50) under setting [2] was 25.9 µM [rising, single point]. Regarding `O=C(Nc1ccc(F)c(Cl)c1)Nc1csc2ccccc12`, the cell number change was -59.7%. For the same molecule, under setting [2], the AC50 was 20.6 µM [falling, single point]. The AC50 under setting [1] was 29.1 µM [falling, single point]. As for `O=C(c1ccco1)N1N=C(c2ccc(Cl)cc2)CC1(O)C(F)(F)F` (stereo unspecified), the cell number change was -81.9%. Under setting [2], the AC50 was 6.51 µM [falling, single point]. Moreover, the AC50 under setting [1] is 23.1 µM [falling, single point]. For `CC1(C)OC(=O)C(=NNc2ccc(Cl)cc2)C(=O)O1`, under setting [1], the AC50 is 6.51 µM [falling, single point]. `Cc1ccc(C(=O)NCCCNC(=O)c2ccco2)cn1`: the cell number change was 15.7%. Under setting [2], the half-maximal activity concentration (AC50) is 6.51 µM [rising, partial curve, poor fit]. Turning to `COc1ccc(N2CC(C(=O)N[C@@H](C)C(=O)NCCc3ccccc3)CC2=O)cc1` (stereo partly specified), the cell number change is 3.98%. Further, under setting [1], the AC50 is 29.1 µM [rising, single point]. As for `O=C(CN1CCCCCC1)N/N=C/c1cccs1`, the cell number change is -129%. For the same molecule, under setting [2], the AC50 was 25.9 µM [falling, partial curve, poor fit]. Also, under setting [1], the half-maximal activity concentration (AC50) is 20.6 µM [falling, partial curve]. Take `Cc1nnc(SCC(=O)NNC(=O)c2ccccc2)n1N`: the cell number change was 0.634%. Further, the concentration at half-maximal activity (AC50) under setting [1] was 0.00461 µM [falling, full curve, poor fit]. For `Clc1cccc(Oc2cnns2)c1Cl`, the cell number change is -33.4%. Moreover, the AC50 under setting [2] was 9.2 µM [falling, partial curve, poor fit]. Regarding `CCOC(=O)c1cnn(-c2ccc(F)cc2)c1N`, the cell number change came out at 128%. Further, the half-maximal activity concentration (AC50) under setting [2] is 20.6 µM [rising, partial curve]. For the molecule `CCCC/C(O)=C1\C(=O)CC(C)(C)CC1=NCCCCCC(=O)O`, the cell number change was -4.87%. Moreover, the concentration at half-maximal activity (AC50) under setting [1] was 3.26 µM [falling, single point].

Regarding `CC(=O)Nc1ccc2nc(SCC(=O)Nc3ccc(N4CCOCC4)c(Cl)c3)sc2c1`, the cell number change is -11%. For the same molecule, the AC50 under setting [1] was 18.4 µM [falling, partial curve, poor fit]. Turning to `COc1ccc2c(C)cc(N3CCN(Cc4ccccc4)CC3)nc2c1`, the cell number change came to 13.5%. Further, the concentration at half-maximal activity (AC50) under setting [1] is 7.31 µM [rising, partial curve, poor fit].

Take `Cc1cc(C)c2sc(N(CCCN(C)C)C(=O)c3ccc(S(=O)(=O)N4CCCc5ccccc54)cc3)nc2c1`: the cell number change was -80.7%. Further, under setting [2], the AC50 is 23.1 µM [falling, partial curve]. For the same molecule, under setting [1], the half-maximal activity concentration (AC50) is 29.1 µM [falling, single point].
